Results deposited as PubChem BioAssay AID1259308 (NCATS, 2017).
The whole screen tested about 59,000 reagents; this is a random part of them. Of all reagents, about 1,510 (2.6%) are marked active. 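Calls use total luciferase alone and ignore viability, so some active siRNAs may act by altering cell number.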 Unmarked entries are inactive. Reagents against one gene are numbered here. Further read-outs or replicates are left out here.

Test: 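Knock-downs that increase output of a recombinant reporter protein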 (primary screen)
System: human HEK293 embryonic kidney cells stably expressing firefly luciferase (HEK-CMV-Luc2-Hygro)
Reagents: single siRNA against human genes, 0.8 pmol siRNA per well
Timing: 72 h
Measured: 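Reporter luminescence and viable-cell signal on separate replicate plates, given as percent of non-targeting control and median/MAD z-scores, plus per-cell luciferase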
Direction: total luciferase, z-score: higher = more reporter protein produced
Active means: 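An siRNA counts as active if its total luciferase robust z-score exceeds 3; genes with two or more such siRNAs out of three were retested with fresh siRNAs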
Calls: active = raised luciferase; inactive = no rise

total luciferase, z-score, by gene and reagent
CYP4F11: #1 1.9; #2 0.408; #3 -0.485
NACC2: #1 2.21; #2 0.0288; #3 -0.0618
YME1L1: #1 -0.766; #2 -0.658; #3 1.52
MAGEH1: #1 -0.275; #2 -0.454; #3 2.38
POLR2A: #1 -3.93; #2 -3.26; #3 -1.74
COBLP1: #1 -0.571; #2 -0.517; #3 -0.787
FLRT2: #1 0.891; #2 0.544; #3 -0.434
UBAP1L: #1 2.57; #2 1.46; #3 1.06
OR8K1: #1 -0.204; #2 -0.185; #3 0.953
GFOD2: #1 -0.415; #2 -0.0496; #3 -1.85
SERTAD3: #1 1.56; #2 -0.725; #3 -0.521
PPP1R14D: #1 -0.219; #2 2.39; #3 -0.941
PAPSS1: #1 -0.552; #2 2.27; #3 0.119
RUNX2: #1 -0.97; #2 0.921; #3 -0.6
MMP16: #1 0.82; #2 -0.476; #3 1.53
IER3IP1: #1 1.46; #2 -0.0964; #3 -0.318
RPL7AP27: #1 -2.76; #2 -2.38; #3 -2.85
ASNSD1: #1 0.287; #2 -0.176; #3 1.04
RPS9: #1 -3.05; #2 -2.52; #3 -2.26

3 of these entries, set out differently:
COBLP1 #2
- total luciferase, z-score: -0.517

COBLP1 #3
- total luciferase, z-score: -0.787

FLRT2 #1
- total luciferase, z-score: 0.891
